Experimental data from patent US11511028B2, “Extracorporeal drug removal for intravascular triggered drug delivery systems” (MUSC Foundation for Research Development, priority 2018, dated 2022).

Assay: In vitro filtration of unencapsulated drug in PBS through activated carbon filter
Conditions: for Filtration efficacy: unencapsulated drug in PBS, filter filled with 175 mg carbon pellets, n=3

Row | SMILES | Filtration efficacy (flow rate 350 ul/min) [%] | Filtration efficacy (flow rate 520 ul/min) [%] | Filter efficacy at the examined flow rates (flow rates 350, 410 and 520 ul/min, PBS)
1 | CC(=O)[C@]1(O)Cc2c(O)c3c(c(O)c2[C@@H](O[C@H]2C[C@H](N)[C@H](O)[C@H](C)O2)C1)C(=O)c1ccccc1C3=O [idarubicin] | 95 | 85 | 85-95%
2 | COc1cccc2c1C(=O)c1c(O)c3c(c(O)c1C2=O)C[C@@](O)(C(=O)CO)C[C@@H]3O[C@H]1C[C@H](N)[C@H](O)[C@H](C)O1 [doxorubicin] | 90 | – | –
